Measured values: PMC10878038
Results are given in words; binding and its absence hold for the method and conditions named. Binding seen in cells or lysates may run through a third protein. Some results given as binding are weak or reduced against the parent protein; the word gives no strength. For part of these data: Where a sequence is shown, tags or fusion partners need not be part of it.

By UniProt entry, the sequences of proteins in these tests, tags left out.
UniProt P61019: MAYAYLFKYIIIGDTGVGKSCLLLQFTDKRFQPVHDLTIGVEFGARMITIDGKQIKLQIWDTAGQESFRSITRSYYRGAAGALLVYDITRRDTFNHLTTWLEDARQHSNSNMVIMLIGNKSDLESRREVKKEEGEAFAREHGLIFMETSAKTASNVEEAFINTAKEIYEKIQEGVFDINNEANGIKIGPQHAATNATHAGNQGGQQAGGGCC

T1: ULK1-Flag (UniProt O75385)
T1 sequence: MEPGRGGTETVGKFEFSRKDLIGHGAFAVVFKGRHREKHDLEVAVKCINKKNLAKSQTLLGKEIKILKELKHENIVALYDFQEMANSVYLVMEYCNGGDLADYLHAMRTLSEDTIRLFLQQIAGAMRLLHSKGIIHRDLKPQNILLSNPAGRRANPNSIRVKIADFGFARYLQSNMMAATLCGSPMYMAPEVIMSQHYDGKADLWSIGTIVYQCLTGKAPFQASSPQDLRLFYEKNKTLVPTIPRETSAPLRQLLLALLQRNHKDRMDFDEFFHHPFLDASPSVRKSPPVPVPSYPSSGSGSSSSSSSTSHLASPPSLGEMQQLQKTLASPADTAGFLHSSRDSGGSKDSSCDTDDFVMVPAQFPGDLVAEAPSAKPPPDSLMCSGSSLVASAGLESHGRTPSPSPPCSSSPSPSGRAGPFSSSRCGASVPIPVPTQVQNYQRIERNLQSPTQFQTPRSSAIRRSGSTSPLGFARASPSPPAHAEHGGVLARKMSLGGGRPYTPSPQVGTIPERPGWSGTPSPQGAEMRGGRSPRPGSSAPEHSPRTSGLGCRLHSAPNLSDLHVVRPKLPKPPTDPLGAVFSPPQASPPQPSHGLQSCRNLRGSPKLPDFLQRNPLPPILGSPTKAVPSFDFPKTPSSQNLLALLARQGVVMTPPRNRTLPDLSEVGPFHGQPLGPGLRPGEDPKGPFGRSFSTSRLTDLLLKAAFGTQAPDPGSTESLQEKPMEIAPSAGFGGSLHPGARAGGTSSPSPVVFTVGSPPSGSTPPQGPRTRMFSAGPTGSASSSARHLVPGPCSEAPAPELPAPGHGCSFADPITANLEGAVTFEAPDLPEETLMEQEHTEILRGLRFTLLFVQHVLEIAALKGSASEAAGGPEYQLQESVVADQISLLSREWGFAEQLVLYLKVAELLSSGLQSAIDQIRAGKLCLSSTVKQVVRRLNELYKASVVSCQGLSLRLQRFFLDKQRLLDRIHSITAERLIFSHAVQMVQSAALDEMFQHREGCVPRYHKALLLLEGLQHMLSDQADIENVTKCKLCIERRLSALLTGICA


Legend:
ULK1-Flag = molecular target: T1, ULK1-Flag; assay: co-IP; HEK-293T transfected with a tagged bait (with Nsp2-HA or empty vector; with GRASP65-myc in Fig. S4C), 36 h; anti-tag magnetic beads at 4°C overnight; endogenous partner detected by IB with specific antibodies
RAB2-myc = RAB2-myc (UniProt P61019); assay: as above
RAB2-GFP = RAB2-GFP (UniProt P61019); assay: co-IP; Fig. S4A: RAB2-GFP and endogenous GM130, with overexpression of GRASP65-myc; details in the supplemental legends (not shown)

binding (ULK1-Flag)	binding (RAB2-myc)	binding (RAB2-GFP)	Molecule
binds			RAB2, endogenous in HEK-293T (from UniProt P61019 1-212)
	binds	binds	Golgi matrix protein 130 (GM130), endogenous in HEK-293T (protein, UniProt Q08379 1-1002) MWPQPRLPPRPAMSEETRQSKLAAAKKKLREYQQRNSPGVPTGAKKKKKIKNGSNPETTTSGGCHSPEDTPKDNAATLQPSDDTVLPGGVPSPGASLTSMAASQNHDADNVPNLMDETKTFSSTESLRQLSQQLNGLVCESATCVNGEGPASSANLKDLESRYQQLAVALDSSYVTNKQLNITIEKLKQQNQEITDQLEEEKKECHQKQGALREQLQVHIQTIGILVSEKAELQTALAHTQHAARQKEGESEDLASRLQYSRRRVGELERALSAVSTQQKKADRYNKELTKERDALRLELYKNTQSNEDLKQEKSELEEKLRVLVTEKAGMQLNLEELQKKLEMTELLLQQFSSRCEAPDANQQLQQAMEERAQLEAHLGQVMESVRQLQMERDKYAENLKGESAMWRQRMQQMSEQVHTLREEKECSMSRVQELETSLAELRNQMAEPPPPEPPAGPSEVEQQLQAEAEHLRKELEGLAGQLQAQVQDNEGLSRLNREQEERLLELERAAELWGEQAEARRQILETMQNDRTTISRALSQNRELKEQLAELQSGFVKLTNENMEITSALQSEQHVKRELGKKLGELQEKLSELKETVELKSQEAQSLQQQRDQYLGHLQQYVAAYQQLTSEKEVLHNQLLLQTQLVDQLQQQEAQGKAVAEMARQELQETQERLEAATQQNQQLRAQLSLMAHPGEGDGLDREEEEDEEEEEEEAVAVPQPMPSIPEDLESREAMVAFFNSAVASAEEEQARLRGQLKEQRVRCRRLAHLLASAQKEPEAAAPAPGTGGDSVCGETHRALQGAMEKLQSRFMELMQEKADLKERVEELEHRCIQLSGETDTIGEYIALYQSQRAVLKERHREKEEYISRLAQDKEEMKVKLLELQELVLRLVGDRNEWHGRFLAAAQNPADEPTSGAPAPQELGAANQQGDLCEVSLAGSVEPAQGEAREGSPRDNPTAQQIMQLLREMQNPRERPGLGSNPCIPFFYRADENDEVKITVI
